# Percent effect of library compounds

Results are given as percent effect.
The controls that fix the scale are not given in the record; negative values are as filed.
The compounds are a random part of those screened.

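Phenotypic screen: M. tuberculosis growth, cholesterol and DPPC medium, 4 days; the read-out is not stated. Concentration: 500 µM. Direction is inferred from retests: higher values go with more growth inhibition. Of about 18,000 compounds tested this way, about 900 (5%) reached 50% or more in at least one test.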

structure | Percent Effect
CS(=O)(=O)N1CCC(NC(=O)c2cccc(Cl)c2)CC1 | -10.51
NCC(O)c1cccc(F)c1 (stereo not given) | 1.106
CC1(C)CCN(C(=O)Nc2ccsc2)CCS1(=O)=O | -5.544
CN1CCN(C(=O)c2cnn[nH]2)C(c2ccccc2)C1 (stereo not given) | 11.74
O=C(c1cc(CN2CCC(O)CC2)on1)N1CCCC1 | -10.62
COc1c(F)cc(CN2CC[C@@H](N)[C@H](O)C2)cc1Cl | 26.56
CNC(=O)CN1CCNCC1 | -14.37
O=S1(=O)C[C@H]2CNC[C@@H](C1)[C@@H]2O | -23
CCN1CCCC1CNC(=O)Nc1ccc(OC)cc1 (stereo not given) | 0.7317
C[C@@H](C#N)NC(=O)OC(C)(C)C | 9.344
COc1ncccc1CNS(=O)(=O)C1CC1 | -24.24
O=C(CCCN1CCCCC1)NCCn1cccc1 | -6.835
COC(=O)CN(C(=O)c1ccc(Cl)cn1)C1CCCC1 | 9.789
O=C(C1CCC1)N1CCc2ccc(O)cc2C1 | 41.89
O=C(NCCN1CCC(O)CC1)c1cncc(Cl)c1 | -6.08
Cc1nc(C(N)=O)ccc1N | -17.07
CC(C)c1nsc(N2CCOCC2C)n1 (stereo not given) | 8.18
CC(Cn1ccnc1)NC(=O)CN1CCCC1=O (stereo not given) | -6.297
NS(=O)(=O)c1ccc(Sc2ccc(F)cc2F)nc1 | 28.74
COc1ccc(-c2nc(CS(C)(=O)=O)cs2)cc1 | 4.383
CCCN1CCC(NC(=O)C(C)C)CC1 | 7.94
COc1ccc(NC(C(N)=O)c2ccc(Br)cc2)cn1 (stereo not given) | 54.62
CC(C)(O)C(=O)NC1CCN(CC2CCCC2)CC1 | 8.017
CCN(CC)CCSC1CCCCNC1=O (stereo not given) | -18.41
Cc1nnc(SCC(=O)N2CC[C@](C)(O)[C@@H](O)C2)o1 | -10.22
c1ccc(N2CCCN(c3ncccn3)CC2)nc1 | 1.62
Cc1ccc2nc(C(=O)N[C@@H]3CCCNC3)c(F)n2c1 | 21.13
Clc1cnccc1CN1CCC2(CC1)OCCO2 | 12.23
CN(Cc1cccc(F)c1)C(=O)c1cnccn1 | 54.91
Cc1cccc(C2NCCNC2=O)c1 (stereo not given) | -19.9
CN(CCn1cnnc1)CC(=O)NCc1ccc(Cl)s1 | -12.07
CC(NS(=O)(=O)c1cnn(C)c1)c1ccncc1 (stereo not given) | 10.96
O=C(NC1CCN(C(=O)C2CC2)CC1)c1cnc[nH]1 | 0.4678
Nc1noc(-c2ccc(Cl)cc2)n1 | 10.61
O=S1(=O)CCC(NC2CC2)C1 (stereo not given) | -2.498
CCS(=O)(=O)Nc1ccc(CN)cc1 | 4.759
N#Cc1ccccc1NC(=O)CCN1CCCC(O)C1 (stereo not given) | -21.12
CC(CNC(=O)c1cccc(OC(F)F)c1)N(C)C (stereo not given) | -11.49
N#Cc1c(CCCN)nn(-c2ccccc2)c1N | 8.793
Cc1ccc(NC(=O)NCCS(=O)(=O)N(C)C)cc1Cl | 89.07
CS(=O)(=O)CCNS(=O)(=O)c1c(Cl)cccc1Cl | -5.313
C[C@@H]1CN(C(=O)c2cc(F)cc(C#N)c2)C[C@]1(C)O | -2.939
CS(=O)(=O)NCC1CCCN(Cc2cccnc2N)C1 (stereo not given) | 0.2312
CNCC(C)CNC(=O)c1ccc(C(N)=O)nc1 (stereo not given) | 42.67
Nc1nnc(SCC(=O)OC2CCCCC2)[nH]1 | -3.586
COc1cc(CNC2CC2)ccc1O | 10.29
CN1CCN(C(=O)Cc2cn(C)c3ccccc23)CC1 | 9.289
CC1(N)CCOCC1 | -21.07
COCCC(=O)N(C)Cc1cccnc1OC | 4.175
Nc1ccc(C(=O)N2CCC(n3cnnc3)CC2)cn1 | 0.4322

The last 3 entries again:

structure,Percent Effect
CC1(N)CCOCC1,-21.07
COCCC(=O)N(C)Cc1cccnc1OC,4.175
Nc1ccc(C(=O)N2CCC(n3cnnc3)CC2)cn1,0.4322

Measurements from “University of Dundee, Small-Polar-MMV Screening Library” (2021), ChEMBL document CHEMBL3988442.